Where two headings read alike, the source gives them in different places. The match of structure and compound is tentative.
Key:
5-HT2A receptor = 5-HT2A receptor (Homo sapiens, UniProt P28223); assay: FLIPR Ca2+ flux functional assay, 5-HT2A; type: cell-based; details: for 5-HT2A Emax: agonist activity, HEK293 cells
Description: Activity at 5-HT2A, 5-HT2B and 5-HT2C receptors was determined using a FLIPR Ca^2+ flux assay at WuXi AppTec Co. Ltd. (Hong Kong) Discovery Biology Unit according to their standard protocols. Briefly, stably transfected cells expressing the receptor of interest (HEK293 for 5-HT2A and 5-HT2C; CHO-K1 for 5-HT2B) were grown and plated in a 384 well plate and incubated at 37° C. and 5% CO2 overnight. A 250 mM stock solution of probenecid in FLIPR calcium assay buffer (10 mL) was freshly prepared and combined with a fluorescent dye (Fluo-4 Direct) to give a final assay concentration of 2.5 mM. Reference compounds were 4-fold serially diluted and the screening compounds were 3-fold serially diluted in 100% DMSO for 10 points using Agilent Bravo, and 750 nL was added to a 384 well compound plate using Echo along with 30 μL assay buffer. The fluorescent dye was then added to the assay plate along with assay buffer to a final volume of […]. The cell plate was incubated for 50 min at 37° C. and 5% CO2 and placed into the FLIPR Tetra along with the compound plate. 10 μL of references and compounds were then transferred from the compound plate into the cell plate and the fluorescent signal was read.

Protein sequences, listed by entry. Tags and fused reporters are not part of them. Residues count along the entry.
UniProt P28223, whole entry: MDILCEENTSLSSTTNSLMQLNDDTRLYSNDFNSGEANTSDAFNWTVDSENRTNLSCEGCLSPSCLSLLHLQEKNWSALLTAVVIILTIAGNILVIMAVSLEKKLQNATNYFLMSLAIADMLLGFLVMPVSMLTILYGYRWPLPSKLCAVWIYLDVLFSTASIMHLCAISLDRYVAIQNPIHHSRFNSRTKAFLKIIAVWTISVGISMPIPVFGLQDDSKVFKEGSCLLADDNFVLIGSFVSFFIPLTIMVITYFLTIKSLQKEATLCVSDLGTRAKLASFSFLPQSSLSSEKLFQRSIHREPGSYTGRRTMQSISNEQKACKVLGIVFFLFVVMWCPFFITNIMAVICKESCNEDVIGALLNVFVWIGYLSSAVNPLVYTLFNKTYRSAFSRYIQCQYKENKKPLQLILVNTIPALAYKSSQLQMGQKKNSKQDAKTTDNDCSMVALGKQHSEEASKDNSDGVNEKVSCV
UniProt P28335, 33-458 limits assumed: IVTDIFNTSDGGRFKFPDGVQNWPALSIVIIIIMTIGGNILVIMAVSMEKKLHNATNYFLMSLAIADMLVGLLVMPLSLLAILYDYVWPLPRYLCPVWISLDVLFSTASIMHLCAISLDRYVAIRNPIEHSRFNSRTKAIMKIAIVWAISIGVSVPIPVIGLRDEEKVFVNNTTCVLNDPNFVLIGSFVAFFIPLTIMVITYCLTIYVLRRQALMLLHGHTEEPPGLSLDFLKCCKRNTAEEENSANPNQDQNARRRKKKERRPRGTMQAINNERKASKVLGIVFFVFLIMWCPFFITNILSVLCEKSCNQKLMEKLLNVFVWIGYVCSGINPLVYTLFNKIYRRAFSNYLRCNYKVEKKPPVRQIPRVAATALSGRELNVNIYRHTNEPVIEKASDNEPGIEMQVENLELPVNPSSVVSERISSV
UniProt P41595, whole entry: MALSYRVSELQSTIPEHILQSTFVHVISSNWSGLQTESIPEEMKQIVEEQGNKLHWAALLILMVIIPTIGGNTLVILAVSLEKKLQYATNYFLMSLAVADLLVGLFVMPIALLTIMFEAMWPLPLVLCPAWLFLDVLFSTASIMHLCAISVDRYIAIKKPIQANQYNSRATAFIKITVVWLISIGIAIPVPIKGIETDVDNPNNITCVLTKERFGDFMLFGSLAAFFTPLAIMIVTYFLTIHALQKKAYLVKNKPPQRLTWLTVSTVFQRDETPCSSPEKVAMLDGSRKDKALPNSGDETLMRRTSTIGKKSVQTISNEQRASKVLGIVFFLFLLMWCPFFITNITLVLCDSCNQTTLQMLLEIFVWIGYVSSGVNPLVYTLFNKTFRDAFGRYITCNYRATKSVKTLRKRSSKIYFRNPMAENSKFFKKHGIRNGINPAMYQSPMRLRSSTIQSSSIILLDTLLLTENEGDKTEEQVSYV

5-HT2C receptor = 5-HT2C receptor (Homo sapiens, UniProt P28335); details: agonist activity, Ca2+ flux, HEK293 cells; for EC50: read-out: 5-HT2C EC50
5-HT2B receptor = 5-HT2B receptor (Homo sapiens, UniProt P41595); details: for EC50: read-out: 5-HT2B EC50
[1] = read-out: 5-HT2A EC50, agonist activity, HEK293 cells, tested form: oxalate
[2] = agonist activity, Ca2+ flux, CHO-K1 cells, tested form: oxalate
[3] = agonist activity, Ca2+ flux, CHO-K1 cells, tested form: HCl
[4] = read-out: 5-HT2A EC50, agonist activity, HEK293 cells, tested form: fumarate
[5] = agonist activity, Ca2+ flux, CHO-K1 cells, tested form: fumarate

Compound | 5-HT2A Emax (5-HT2A receptor; tested form: fumarate) [%] | EC50 (5-HT2A receptor; [4]) [nM] | 5-HT2C Emax (5-HT2C receptor; tested form: fumarate) [%] | EC50 (5-HT2C receptor; tested form: fumarate) [nM] | 5-HT2B Emax (5-HT2B receptor; [5]) [%] | EC50 (5-HT2B receptor; [5]) [nM] | also measured
CCN(C)CCc1c[nH]c2ccc(OC)c(F)c12 | – | – | – | – | – | – | 5-HT2A Emax (5-HT2A receptor; tested form: oxalate): 99.59%; EC50 (5-HT2A receptor; [1]): 52.1 nM; 5-HT2C Emax (5-HT2C receptor; tested form: oxalate): 93.06%; EC50 (5-HT2C receptor; tested form: oxalate): 25.4 nM; 5-HT2B Emax (5-HT2B receptor; [2]): 5.29%; EC50 (5-HT2B receptor; [2]): > 10000 nM
COc1cc(C)c2[nH]cc(CCN(C)C(C)C)c2c1 | – | – | – | – | – | – | 5-HT2A Emax (5-HT2A receptor; tested form: oxalate): 90.53%; EC50 (5-HT2A receptor; [1]): 64.2 nM; 5-HT2C Emax (5-HT2C receptor; tested form: oxalate): 19.78%; EC50 (5-HT2C receptor; tested form: oxalate): > 10000 nM; 5-HT2B Emax (5-HT2B receptor; [2]): 1.72%; EC50 (5-HT2B receptor; [2]): > 10000 nM
CCN(CCc1c[nH]c2c(C)cc(OC)cc12)C(C)C | – | – | – | – | – | – | 5-HT2A Emax (5-HT2A receptor; tested form: HCl): 73.14%; EC50 (5-HT2A receptor; read-out: 5-HT2A EC50, agonist activity, HEK293 cells, tested form: HCl): 844 nM; 5-HT2C Emax (5-HT2C receptor; tested form: HCl): 82.76%; EC50 (5-HT2C receptor; tested form: HCl): 913 nM; 5-HT2B Emax (5-HT2B receptor; [3]): 5.84%; EC50 (5-HT2B receptor; [3]): > 10000 nM
COc1cc(C)cc2[nH]cc(CCN(C(C)C)C(C)C)c12 | 53.06 | 7490 | 63.93 | 6120 | 68.08 | 1020 | –
CCN(C)CCc1c[nH]c2cc(C)cc(OC)c12 | 64.68 | 71.3 | 54.66 | 305 | 0.25 | – | EC50 (5-HT2B receptor; tested form: fumarate): > 10000 nM
CCN(CC)CCc1c[nH]c2cc(C)cc(OC)c12 | 57.54 | 280 | 54.82 | 1680 | 1.13 | > 10000 | –
COc1ccc2[nH]cc(CCN(C(C)C)C(C)C)c2c1F | 95.38 | 114 | 90.69 | 895 | 107.28 | 481 | –
COc1ccc2[nH]cc(CCN(C)C(C)C)c2c1F | 89.89 | 99.5 | 87.22 | 343 | 15.06 | > 10000 | –
COc1cc(C)cc2[nH]cc(CCN(C)C(C)C)c12 | 70.74 | 56.7 | 27.92 | 2220 | 0.35 | > 10000 | –
CCN(CC)CCc1c[nH]c2ccc(OC)c(F)c12 | 88.19 | 120 | 86.34 | 418 | 33.44 | > 10000 | –

Reference: patent US20250101038A1, “COMPOUNDS” (priority 2021, published 2025)
